This test deals with T1, EBV early gene product BRRF1, HA-tagged (pLIX402-BRRF1) (Epstein-Barr virus (type I)) (UniProt P03207).
T1 sequence: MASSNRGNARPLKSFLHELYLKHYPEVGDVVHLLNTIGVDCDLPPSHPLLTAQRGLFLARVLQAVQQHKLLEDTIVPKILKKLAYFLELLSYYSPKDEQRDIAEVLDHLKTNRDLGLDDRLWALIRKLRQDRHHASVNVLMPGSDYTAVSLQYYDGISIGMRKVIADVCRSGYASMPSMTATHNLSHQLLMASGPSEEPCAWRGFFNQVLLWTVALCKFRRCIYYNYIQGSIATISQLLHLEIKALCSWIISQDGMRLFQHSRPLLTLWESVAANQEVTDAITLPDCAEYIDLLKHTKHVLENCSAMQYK
Briefly: co-IP; anti-HA complexes from P3HR-1 expressing BRRF1 cDNA, immunoblot, n = 3. Background: In western blotting, separated proteins are transferred to a membrane and probed.

Chains of the proteins cited; added tags and fusions are not shown.
UniProt Q9H9A5: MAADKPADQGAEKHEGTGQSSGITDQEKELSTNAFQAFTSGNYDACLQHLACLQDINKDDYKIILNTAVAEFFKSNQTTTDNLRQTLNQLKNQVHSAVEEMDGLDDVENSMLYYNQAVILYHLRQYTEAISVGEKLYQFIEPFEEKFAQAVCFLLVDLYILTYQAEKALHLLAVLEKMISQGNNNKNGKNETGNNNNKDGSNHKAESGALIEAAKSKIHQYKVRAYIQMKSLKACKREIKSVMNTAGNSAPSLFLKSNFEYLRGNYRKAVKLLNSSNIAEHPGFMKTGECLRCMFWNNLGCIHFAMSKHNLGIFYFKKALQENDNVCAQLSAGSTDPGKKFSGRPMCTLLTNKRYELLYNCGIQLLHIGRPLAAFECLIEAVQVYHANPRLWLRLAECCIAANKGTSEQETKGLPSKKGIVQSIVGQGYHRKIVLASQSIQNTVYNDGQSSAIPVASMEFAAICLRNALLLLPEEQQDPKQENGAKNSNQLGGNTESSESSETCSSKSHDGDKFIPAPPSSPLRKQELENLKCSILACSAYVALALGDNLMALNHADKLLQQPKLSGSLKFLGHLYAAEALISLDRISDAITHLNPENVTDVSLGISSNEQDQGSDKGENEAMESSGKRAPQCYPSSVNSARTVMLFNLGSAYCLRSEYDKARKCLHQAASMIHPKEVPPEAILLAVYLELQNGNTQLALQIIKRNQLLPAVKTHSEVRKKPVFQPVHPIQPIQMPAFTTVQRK
UniProt A5YKK6: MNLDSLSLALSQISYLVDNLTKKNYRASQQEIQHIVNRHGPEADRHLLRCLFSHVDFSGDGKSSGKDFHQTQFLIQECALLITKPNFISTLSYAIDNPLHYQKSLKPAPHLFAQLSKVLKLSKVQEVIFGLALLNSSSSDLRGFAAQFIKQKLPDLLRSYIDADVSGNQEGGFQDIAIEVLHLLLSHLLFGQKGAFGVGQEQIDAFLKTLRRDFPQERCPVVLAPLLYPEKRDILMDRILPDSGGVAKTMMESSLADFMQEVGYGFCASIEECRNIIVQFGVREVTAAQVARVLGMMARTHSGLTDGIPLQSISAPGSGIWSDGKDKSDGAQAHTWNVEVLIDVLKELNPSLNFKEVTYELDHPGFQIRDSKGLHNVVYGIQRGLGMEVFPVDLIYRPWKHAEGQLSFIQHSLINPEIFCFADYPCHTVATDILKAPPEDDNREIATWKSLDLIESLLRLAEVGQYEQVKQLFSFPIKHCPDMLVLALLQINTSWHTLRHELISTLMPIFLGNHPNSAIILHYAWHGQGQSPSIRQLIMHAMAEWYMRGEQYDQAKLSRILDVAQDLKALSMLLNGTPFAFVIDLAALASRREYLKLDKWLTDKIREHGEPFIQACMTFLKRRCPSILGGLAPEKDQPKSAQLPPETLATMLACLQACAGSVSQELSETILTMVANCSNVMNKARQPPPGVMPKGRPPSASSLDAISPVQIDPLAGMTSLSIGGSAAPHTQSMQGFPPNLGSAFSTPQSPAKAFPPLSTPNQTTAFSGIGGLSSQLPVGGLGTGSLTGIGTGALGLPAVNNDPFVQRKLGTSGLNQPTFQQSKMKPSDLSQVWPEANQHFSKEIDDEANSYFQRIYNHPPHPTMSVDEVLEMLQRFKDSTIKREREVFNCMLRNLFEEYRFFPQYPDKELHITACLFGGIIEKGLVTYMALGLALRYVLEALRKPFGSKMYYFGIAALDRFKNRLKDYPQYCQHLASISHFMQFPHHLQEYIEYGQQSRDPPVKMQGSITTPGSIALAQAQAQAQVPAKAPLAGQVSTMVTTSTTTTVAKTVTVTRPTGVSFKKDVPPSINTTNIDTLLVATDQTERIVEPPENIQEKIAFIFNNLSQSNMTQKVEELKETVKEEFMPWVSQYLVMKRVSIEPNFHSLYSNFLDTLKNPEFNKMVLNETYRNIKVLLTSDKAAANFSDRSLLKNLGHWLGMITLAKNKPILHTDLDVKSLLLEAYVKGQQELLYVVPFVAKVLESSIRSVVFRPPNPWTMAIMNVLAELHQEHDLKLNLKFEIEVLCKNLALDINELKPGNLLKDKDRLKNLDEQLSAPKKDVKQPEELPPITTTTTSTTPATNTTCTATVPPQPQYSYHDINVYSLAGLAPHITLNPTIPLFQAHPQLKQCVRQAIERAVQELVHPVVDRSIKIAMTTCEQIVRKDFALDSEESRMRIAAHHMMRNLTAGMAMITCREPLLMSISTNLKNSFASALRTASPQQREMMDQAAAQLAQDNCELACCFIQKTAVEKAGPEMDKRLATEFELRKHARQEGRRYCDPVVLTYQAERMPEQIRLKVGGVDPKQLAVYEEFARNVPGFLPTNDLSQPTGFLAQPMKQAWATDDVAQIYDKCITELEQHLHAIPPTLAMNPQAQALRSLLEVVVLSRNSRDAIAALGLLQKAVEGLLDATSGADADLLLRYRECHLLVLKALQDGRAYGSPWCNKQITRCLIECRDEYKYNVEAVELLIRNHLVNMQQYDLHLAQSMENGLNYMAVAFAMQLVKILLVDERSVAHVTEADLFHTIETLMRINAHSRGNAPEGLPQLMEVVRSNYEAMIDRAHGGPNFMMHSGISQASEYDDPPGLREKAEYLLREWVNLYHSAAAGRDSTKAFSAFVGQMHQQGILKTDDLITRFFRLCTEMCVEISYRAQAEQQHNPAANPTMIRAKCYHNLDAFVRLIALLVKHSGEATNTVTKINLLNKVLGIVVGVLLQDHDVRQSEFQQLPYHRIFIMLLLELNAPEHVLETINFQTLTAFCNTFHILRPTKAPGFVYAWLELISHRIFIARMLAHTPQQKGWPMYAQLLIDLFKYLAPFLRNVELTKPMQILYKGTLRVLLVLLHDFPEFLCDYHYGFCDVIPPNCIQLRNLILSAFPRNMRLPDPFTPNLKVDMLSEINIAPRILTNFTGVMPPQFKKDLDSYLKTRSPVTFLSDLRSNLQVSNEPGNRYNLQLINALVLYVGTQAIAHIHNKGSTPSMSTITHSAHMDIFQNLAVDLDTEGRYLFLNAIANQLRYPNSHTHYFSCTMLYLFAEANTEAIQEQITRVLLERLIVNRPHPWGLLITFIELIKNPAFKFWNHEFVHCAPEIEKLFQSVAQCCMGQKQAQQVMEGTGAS

No constants are given. Whether binding was seen depends on the method and setting. Binding seen in cells or lysates may run through a third protein. Some binding calls cover weakened binding; strength is not graded here. Tags and fused reporters may be left off the sequences shown.

For “CCR4/NOT complex member CNOT10, endogenous (from UniProt Q9H9A5 1-744)”, the binding result is reported as “binds”.

Regarding “CCR4/NOT complex member CNOT1, endogenous (from UniProt A5YKK6 1-2376)”, the binding entry is “binds”.

For the origin of these results see article PMC10372749.
